Laboratory results reported in publication PMC11352776.
No constants are given. Whether binding was seen depends on the method and setting. In cells and extracts the contact can be indirect. Some entries that bind do so weakly or less than the wild type. Tags and fused reporters may be left off the sequences shown.

By UniProt entry, the sequences of proteins in these tests, tags left out. Where a name states a change or a piece, a line headed by the entry shows the natural chain unless it says otherwise. Chains listed by the source or under a name are the forms on record and can include a tag or linker.
mouse Ten-4 tagging HA (Ten-4-HA) (Q3UHK6-4, form named): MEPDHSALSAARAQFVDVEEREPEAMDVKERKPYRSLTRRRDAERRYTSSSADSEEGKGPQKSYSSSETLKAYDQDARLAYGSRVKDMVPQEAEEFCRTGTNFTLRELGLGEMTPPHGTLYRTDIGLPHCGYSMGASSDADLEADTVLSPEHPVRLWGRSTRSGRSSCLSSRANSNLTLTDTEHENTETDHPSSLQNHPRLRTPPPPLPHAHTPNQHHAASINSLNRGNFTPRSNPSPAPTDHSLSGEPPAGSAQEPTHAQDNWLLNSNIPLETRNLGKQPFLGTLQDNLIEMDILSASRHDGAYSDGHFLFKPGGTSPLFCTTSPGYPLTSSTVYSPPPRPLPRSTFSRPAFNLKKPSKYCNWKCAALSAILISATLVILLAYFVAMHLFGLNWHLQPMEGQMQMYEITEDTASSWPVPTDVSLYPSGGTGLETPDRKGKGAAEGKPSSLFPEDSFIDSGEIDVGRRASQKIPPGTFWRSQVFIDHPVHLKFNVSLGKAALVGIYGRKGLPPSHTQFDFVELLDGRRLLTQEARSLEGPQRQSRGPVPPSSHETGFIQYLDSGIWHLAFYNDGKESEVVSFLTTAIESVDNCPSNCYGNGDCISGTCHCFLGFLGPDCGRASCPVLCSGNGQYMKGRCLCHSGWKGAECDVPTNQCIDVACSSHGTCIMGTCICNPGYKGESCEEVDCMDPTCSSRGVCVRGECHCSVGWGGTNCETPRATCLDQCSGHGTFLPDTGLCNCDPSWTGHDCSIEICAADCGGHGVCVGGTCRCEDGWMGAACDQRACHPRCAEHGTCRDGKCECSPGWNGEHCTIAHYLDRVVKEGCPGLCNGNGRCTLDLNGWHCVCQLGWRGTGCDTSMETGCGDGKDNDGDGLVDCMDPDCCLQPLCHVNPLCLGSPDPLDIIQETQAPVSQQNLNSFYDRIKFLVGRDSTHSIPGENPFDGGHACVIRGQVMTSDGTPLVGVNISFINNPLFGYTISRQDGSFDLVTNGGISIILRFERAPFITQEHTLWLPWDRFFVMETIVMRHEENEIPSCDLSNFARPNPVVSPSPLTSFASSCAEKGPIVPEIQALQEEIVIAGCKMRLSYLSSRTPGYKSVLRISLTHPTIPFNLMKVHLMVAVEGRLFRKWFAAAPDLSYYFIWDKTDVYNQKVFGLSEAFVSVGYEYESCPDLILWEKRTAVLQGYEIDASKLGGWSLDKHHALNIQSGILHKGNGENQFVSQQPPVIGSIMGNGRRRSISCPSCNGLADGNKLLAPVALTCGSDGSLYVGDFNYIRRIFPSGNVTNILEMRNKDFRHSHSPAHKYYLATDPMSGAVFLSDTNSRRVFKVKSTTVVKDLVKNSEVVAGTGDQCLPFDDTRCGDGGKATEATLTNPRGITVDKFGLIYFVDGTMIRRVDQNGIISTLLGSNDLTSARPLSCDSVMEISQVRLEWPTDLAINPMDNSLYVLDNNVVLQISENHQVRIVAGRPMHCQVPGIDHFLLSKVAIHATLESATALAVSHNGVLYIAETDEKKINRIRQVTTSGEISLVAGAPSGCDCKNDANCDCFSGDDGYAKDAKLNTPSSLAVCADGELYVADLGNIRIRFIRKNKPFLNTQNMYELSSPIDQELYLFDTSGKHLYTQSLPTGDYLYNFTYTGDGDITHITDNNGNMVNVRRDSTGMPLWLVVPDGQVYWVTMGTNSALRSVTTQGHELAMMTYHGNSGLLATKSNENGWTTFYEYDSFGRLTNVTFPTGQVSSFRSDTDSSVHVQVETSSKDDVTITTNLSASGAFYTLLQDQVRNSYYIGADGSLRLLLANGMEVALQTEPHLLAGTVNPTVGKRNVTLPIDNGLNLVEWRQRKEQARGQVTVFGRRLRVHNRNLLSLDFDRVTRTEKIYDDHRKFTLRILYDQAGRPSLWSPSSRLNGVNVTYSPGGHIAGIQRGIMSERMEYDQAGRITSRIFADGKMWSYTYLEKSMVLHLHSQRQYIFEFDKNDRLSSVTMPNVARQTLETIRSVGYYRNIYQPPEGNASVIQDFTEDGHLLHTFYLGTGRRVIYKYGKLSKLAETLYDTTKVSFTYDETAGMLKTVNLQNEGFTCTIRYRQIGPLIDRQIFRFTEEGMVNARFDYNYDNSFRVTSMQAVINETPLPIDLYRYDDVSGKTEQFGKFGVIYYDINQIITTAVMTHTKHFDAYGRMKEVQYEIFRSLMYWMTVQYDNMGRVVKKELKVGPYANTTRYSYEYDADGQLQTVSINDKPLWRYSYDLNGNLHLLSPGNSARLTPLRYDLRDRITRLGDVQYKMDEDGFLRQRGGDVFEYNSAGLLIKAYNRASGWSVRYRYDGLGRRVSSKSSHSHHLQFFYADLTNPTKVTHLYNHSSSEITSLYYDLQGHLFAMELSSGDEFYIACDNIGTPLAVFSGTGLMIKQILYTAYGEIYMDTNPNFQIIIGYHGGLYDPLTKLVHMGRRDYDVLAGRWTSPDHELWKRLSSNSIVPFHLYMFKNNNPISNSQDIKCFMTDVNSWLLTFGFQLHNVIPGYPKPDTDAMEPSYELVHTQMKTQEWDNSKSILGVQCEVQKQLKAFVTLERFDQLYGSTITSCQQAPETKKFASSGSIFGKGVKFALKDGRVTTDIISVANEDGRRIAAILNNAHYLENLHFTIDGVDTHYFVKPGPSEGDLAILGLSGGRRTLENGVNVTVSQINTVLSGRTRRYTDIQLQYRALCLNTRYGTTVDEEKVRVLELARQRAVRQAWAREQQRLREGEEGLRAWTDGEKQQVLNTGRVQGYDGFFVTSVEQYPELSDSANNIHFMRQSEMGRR

Target: T1, signal peptide sequence-deleted mouse LOTUS having streptavidin-binding protein (SBP)- and FLAG-tag at the N terminus (SBP-FLAG-LOTUS), overexpressed in COS7 cells (mouse) (UniProt Q8R555)
T1 sequence: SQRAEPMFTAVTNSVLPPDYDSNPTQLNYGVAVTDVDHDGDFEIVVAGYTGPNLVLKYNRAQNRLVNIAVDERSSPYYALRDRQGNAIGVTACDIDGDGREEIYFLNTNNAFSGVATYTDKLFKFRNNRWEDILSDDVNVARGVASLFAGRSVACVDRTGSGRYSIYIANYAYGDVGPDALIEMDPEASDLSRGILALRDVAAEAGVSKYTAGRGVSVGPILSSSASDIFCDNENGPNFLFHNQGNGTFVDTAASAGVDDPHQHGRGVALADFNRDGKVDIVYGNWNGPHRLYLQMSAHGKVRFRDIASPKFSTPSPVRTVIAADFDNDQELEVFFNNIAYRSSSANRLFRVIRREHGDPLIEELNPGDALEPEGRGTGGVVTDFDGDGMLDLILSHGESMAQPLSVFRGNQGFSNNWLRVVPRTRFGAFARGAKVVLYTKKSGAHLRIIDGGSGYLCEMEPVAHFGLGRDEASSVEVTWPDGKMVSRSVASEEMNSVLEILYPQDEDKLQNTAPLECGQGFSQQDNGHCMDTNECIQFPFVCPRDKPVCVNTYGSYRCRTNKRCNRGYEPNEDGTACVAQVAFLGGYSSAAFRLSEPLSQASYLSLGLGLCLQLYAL
Assay: pull-down; lysates (1% Nonidet P-40, 137 mM NaCl, 20 mM Tris-Cl pH 7.5) of COS7 cells overexpressing SBP-FLAG-LOTUS and/or Ten-4-HA applied to streptavidin resins; western blotting with anti-Ten-4 and anti-LOTUS antibodies

“mouse Ten-4 tagging HA (Ten-4-HA) (from UniProt Q3UHK6-4 1-2796)” was tested, and the binding was “binds”.
